We go through four substances from PMC6886185.

The chains behind the UniProt entries cited, without tags or fusion partners. Where a name states a change or a piece, a line headed by the entry shows the natural chain unless it says otherwise. A line that says so, or that is headed by a name, gives the form on record, which may keep a tag or linker. Residues count along the entry.
UniProt Q14240: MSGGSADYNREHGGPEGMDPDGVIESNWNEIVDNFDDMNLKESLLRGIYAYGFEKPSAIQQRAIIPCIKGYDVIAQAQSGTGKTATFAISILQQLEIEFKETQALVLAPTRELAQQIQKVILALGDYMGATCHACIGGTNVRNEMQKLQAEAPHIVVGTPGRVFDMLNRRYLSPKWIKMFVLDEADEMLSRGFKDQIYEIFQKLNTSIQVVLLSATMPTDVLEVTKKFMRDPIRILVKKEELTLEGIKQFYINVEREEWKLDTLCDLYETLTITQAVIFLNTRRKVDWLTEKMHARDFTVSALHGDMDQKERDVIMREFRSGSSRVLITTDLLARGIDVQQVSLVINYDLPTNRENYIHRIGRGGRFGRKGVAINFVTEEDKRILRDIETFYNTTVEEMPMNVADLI
4A2Δ1-13: residues 14-407 of Q14240
Flag-eIF4A2 7xM (Q14240, form named): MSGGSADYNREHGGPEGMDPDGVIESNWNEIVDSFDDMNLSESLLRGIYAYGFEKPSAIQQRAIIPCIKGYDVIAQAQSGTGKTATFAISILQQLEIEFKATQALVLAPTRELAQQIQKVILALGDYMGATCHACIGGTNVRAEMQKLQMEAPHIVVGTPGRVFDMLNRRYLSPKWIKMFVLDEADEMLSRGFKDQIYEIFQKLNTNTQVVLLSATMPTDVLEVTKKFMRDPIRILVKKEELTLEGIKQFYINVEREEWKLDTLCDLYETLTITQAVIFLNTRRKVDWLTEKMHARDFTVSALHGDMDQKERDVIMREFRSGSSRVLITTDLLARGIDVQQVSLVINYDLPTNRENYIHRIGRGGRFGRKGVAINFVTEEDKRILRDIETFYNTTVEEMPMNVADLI
UniProt A5YKK6: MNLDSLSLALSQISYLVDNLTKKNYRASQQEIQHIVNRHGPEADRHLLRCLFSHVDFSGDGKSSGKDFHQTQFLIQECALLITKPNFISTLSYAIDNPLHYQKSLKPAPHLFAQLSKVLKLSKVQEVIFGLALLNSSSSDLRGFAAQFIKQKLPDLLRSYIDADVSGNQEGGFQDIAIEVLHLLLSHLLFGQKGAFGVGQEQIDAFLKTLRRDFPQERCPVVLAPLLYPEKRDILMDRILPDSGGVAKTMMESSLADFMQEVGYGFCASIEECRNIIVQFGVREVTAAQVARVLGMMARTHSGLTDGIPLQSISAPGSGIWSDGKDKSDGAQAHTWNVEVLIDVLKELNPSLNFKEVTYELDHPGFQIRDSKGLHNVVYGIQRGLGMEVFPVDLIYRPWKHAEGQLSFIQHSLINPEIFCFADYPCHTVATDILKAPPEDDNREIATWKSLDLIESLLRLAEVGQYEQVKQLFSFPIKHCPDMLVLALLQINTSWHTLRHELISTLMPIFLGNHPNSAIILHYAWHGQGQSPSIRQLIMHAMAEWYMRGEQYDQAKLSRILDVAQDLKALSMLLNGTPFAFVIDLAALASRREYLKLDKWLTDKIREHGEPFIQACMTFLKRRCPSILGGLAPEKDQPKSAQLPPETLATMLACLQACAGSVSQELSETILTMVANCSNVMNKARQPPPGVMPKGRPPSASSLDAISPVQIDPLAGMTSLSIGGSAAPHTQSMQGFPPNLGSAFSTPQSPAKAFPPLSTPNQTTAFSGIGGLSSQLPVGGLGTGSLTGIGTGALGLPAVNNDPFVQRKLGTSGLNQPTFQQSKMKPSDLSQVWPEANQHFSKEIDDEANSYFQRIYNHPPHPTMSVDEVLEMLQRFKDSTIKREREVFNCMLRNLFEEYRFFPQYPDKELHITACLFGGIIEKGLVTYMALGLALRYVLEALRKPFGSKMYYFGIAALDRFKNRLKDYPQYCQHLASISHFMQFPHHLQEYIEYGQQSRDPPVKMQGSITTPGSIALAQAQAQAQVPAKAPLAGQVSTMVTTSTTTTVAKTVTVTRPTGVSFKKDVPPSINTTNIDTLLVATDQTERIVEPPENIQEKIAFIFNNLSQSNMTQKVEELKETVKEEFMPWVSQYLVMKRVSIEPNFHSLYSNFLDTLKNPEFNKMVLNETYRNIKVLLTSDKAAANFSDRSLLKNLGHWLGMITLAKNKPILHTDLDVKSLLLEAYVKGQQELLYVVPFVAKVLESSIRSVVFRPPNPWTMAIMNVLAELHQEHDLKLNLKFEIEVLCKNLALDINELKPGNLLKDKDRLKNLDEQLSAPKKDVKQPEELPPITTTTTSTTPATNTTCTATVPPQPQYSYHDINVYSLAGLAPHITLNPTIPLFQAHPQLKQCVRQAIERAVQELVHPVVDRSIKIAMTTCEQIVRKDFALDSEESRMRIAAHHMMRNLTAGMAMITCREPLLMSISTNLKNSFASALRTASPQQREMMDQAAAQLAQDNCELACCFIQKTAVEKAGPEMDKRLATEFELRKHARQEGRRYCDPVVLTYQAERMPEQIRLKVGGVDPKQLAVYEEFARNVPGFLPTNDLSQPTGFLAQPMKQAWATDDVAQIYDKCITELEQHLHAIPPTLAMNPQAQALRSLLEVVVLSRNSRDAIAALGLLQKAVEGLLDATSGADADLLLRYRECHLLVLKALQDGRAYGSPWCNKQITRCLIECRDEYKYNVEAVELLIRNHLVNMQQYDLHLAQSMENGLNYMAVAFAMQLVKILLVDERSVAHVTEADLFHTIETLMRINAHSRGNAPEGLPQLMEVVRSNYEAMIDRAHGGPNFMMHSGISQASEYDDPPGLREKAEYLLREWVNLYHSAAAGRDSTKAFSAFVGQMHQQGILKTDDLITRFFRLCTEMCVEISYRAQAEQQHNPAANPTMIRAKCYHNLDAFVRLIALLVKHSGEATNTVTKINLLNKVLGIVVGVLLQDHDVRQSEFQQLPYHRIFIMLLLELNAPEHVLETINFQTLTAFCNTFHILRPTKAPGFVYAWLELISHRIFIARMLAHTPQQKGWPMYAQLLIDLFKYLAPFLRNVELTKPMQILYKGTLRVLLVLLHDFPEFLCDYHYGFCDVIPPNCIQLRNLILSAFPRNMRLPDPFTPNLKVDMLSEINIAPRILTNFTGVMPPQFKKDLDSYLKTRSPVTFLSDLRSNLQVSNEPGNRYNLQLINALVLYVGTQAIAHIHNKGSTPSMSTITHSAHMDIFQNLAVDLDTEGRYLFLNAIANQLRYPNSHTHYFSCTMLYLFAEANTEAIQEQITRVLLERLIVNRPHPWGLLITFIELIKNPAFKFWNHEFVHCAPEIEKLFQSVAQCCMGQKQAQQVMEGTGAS
UniProt Q9UIV1: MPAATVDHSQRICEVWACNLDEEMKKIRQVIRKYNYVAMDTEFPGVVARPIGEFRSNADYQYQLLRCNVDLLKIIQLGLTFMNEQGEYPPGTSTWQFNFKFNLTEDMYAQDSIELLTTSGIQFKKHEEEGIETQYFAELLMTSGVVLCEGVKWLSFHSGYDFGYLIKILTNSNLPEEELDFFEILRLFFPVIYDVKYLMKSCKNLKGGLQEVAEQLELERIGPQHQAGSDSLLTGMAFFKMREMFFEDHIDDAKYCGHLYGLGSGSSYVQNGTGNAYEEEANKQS
UniProt Q04637: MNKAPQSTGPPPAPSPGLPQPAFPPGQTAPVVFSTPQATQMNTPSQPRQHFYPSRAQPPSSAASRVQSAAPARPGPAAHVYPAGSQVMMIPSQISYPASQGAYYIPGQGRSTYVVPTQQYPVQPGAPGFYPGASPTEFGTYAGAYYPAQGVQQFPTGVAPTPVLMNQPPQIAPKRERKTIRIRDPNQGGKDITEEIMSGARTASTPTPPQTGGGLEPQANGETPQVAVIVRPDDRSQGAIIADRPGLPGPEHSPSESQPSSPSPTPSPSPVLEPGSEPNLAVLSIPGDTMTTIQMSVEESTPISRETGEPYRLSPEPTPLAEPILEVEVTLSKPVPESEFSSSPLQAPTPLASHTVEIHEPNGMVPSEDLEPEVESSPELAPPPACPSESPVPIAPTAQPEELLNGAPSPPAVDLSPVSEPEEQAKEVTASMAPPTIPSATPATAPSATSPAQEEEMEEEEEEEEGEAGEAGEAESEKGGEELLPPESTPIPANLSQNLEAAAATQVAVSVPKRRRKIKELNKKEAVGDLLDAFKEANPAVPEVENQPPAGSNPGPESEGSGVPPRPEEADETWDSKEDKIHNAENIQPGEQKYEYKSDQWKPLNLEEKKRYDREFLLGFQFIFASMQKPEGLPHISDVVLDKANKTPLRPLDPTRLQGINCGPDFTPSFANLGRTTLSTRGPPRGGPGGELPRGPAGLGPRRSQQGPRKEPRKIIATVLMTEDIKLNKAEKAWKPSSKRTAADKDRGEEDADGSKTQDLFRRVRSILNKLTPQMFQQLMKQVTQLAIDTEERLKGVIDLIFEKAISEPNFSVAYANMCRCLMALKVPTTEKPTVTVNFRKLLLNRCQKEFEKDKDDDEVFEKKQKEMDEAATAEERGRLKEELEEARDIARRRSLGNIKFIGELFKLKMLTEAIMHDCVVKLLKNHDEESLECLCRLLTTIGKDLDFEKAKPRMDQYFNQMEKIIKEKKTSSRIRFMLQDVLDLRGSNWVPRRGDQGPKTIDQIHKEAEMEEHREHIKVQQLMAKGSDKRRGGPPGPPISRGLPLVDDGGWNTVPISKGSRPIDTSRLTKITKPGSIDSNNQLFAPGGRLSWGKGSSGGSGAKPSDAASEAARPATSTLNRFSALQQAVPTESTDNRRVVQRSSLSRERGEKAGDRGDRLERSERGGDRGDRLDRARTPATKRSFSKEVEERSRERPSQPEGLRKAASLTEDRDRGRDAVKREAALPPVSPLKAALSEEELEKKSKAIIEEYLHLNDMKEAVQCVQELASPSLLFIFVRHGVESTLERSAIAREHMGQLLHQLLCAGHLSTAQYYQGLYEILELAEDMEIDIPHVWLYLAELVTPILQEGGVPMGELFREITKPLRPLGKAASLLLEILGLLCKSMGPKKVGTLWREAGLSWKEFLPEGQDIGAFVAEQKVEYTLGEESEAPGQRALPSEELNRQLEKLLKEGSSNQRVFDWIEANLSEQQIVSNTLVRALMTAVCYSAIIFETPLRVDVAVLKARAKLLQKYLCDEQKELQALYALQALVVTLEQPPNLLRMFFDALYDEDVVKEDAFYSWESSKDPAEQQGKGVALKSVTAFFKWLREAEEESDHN

No constants are given. Whether binding was seen depends on the method and setting. Binding seen in cells or lysates may run through a third protein. Some binding calls cover weakened binding; strength is not graded here.

In experiment [1] the target is eIF4A2 (endogenous) (human (endogenous in HeLa)) (UniProt Q14240). Nature of the experiment: co-IP; IPs of endogenous proteins with and without RNaseA digestion; Western blot confirmation of selected LC-MS/MS hits. In general terms: Immunoblotting shows a protein as a band on a membrane.
Experiment [2] shares this target. Nature of the experiment: co-IP; RNaseA-treated IPs of endogenous proteins from gel filtration fractions of HeLa cytoplasmic lysate enriched in CNOT1 and eIF4A2; 5% sucrose, 0.1% CHAPS, 20 mM HEPES/NaOH, 5 mM DTT, 50 mM NaCl, pH 7.0.
For experiment [3], the target named is CNOT1 (human (endogenous in HeLa)) (UniProt A5YKK6). The description is as above.
The target in experiment [4] is Flag-eIF4A2 (UniProt Q14240). In words: co-IP; as a1, but at unphysiologically high levels of eIF4A2 overexpression (Figure S1D).
For experiment [5], the target named is 4A2Δ1-13 (UniProt Q14240). Nature of the experiment: co-IP; Flag immunoprecipitation of tagged proteins from transfected cells (HEK293, 48 h after transfection in Fig. 1b), elution with 200 ng/ul 3xFlag peptide; Western blot for endogenous eIF4G.
Experiment [6] deals with Flag-eIF4A2 (UniProt Q14240). The description is as above.
Experiment [7] has as its target Flag-eIF4A2 7xM (UniProt Q14240). The experiment is described as above.

As for CNOT1 (from UniProt A5YKK6 1-2376), the binding entry in experiment [1] and in experiment [2] was “binds” throughout.

As to CNOT7 (from UniProt Q9UIV1 1-285), the binding entry in experiment [1] is recorded as “binds”.

For “eIF4A2 (endogenous) (from UniProt Q14240 1-407)”, the binding result in experiment [3] was “binds”.

On to eIF4G (from UniProt Q04637 1-1599), for which the binding entry is “binds” in experiment [4], “binds weakly” in experiment [5], “binds weakly” in experiment [6] and “binds” in experiment [7].
